Results taken from the supplement of paper PMC12823440, “Inhibitors supercharge kinase turnover through native proteolytic circuits” (Nature, 2025).
Structures can show the parent of a compound that is named as a salt. This is one part of the list. Hit calls seldom repeat between salt and free forms of one compound.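 Kinases, fused to nanoluciferase, were expressed in K562 cells; luminescence was measured every 4 h from 2 to 18 h as percent of control (DMSO = 100%, positive control = 0%). A time point is decreased if signal falls significantly (2 sigma). Hits were called by the authors by a rule that is not shown; the count of time points alone does not decide it.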

By UniProt entry, the sequences of proteins in these tests, tags left out. Where a name states a change or a piece, a line headed by the entry shows the natural chain unless it says otherwise.
UniProt P07947, whole entry, looked up: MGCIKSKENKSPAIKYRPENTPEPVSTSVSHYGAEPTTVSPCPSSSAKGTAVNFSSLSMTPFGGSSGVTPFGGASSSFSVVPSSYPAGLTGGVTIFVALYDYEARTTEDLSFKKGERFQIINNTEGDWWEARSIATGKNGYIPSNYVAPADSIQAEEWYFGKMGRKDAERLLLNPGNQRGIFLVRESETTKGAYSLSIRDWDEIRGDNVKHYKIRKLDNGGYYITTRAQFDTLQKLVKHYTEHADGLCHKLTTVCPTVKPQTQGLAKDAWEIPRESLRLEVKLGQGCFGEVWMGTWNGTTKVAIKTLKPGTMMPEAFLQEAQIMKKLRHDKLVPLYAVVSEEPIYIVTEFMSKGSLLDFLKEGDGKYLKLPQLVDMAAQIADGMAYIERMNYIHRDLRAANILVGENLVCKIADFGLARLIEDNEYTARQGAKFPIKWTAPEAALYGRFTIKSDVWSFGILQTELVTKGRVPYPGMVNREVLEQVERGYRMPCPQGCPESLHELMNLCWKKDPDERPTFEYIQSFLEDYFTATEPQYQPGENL
UniProt P43403: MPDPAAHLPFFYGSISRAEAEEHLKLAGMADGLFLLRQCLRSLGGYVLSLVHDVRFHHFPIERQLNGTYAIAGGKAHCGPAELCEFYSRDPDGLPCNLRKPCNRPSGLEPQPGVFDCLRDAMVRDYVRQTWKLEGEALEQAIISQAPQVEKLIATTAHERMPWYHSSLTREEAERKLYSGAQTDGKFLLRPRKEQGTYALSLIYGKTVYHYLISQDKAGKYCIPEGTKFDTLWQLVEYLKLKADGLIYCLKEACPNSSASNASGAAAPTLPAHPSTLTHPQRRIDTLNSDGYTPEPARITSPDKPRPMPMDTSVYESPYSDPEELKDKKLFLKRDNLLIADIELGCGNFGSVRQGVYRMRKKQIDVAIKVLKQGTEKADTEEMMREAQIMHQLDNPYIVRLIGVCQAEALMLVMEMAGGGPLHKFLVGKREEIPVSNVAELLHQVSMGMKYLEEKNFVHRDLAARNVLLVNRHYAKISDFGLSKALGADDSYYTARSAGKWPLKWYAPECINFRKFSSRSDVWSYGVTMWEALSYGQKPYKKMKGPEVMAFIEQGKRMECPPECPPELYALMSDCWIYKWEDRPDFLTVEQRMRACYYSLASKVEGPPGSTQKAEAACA
UniProt P11802: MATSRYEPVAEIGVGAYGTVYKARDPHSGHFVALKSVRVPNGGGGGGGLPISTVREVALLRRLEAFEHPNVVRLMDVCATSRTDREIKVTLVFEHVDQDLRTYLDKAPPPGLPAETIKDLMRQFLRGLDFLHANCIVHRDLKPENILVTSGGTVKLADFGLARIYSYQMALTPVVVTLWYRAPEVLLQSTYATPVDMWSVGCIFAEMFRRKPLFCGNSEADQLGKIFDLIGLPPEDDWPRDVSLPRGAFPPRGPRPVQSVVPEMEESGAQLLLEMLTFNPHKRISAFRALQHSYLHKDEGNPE
UniProt P50613: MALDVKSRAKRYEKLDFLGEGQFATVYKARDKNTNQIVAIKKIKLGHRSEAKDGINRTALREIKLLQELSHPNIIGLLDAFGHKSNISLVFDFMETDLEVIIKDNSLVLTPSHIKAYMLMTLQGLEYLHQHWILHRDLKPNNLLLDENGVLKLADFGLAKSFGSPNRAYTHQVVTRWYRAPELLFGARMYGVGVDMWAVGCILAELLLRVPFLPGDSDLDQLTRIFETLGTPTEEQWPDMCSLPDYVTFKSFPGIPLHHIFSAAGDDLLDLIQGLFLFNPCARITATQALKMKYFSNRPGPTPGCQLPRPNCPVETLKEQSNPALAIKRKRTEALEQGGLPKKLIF
UniProt P50750, whole entry: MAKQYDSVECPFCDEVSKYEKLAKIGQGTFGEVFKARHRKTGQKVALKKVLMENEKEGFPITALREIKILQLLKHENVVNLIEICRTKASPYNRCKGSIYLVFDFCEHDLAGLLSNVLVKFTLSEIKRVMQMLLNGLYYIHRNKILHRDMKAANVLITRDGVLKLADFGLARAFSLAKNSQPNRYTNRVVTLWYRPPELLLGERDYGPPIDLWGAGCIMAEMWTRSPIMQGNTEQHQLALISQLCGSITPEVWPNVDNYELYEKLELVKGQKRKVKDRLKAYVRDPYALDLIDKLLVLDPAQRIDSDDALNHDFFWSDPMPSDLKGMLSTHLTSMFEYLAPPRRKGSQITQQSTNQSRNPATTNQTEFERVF

Columns and labels:
Settings in all cases: K562; 2-18 h
YES1 = YES1 (UniProt P07947); experiment: number of time points (of 5) at which kinase-Nluc abundance scored as decreased, DMSO-normalised (count); higher = more persistent destabilization
ZAK = ZAK (UniProt Q9NYL2); experiment: as above
ZAP70 = ZAP70 (UniProt P43403); experiment: as above
CDK4 = CDK4 (UniProt P11802); experiment: number of time points (of 4; 2 h point missing) at which kinase-Nluc abundance scored as decreased, DMSO-normalised (count); higher = more persistent destabilization
CDK7 = CDK7 (UniProt P50613); experiment: as above
CDK9 = CDK9 (UniProt P50750); experiment: as above

Row | Structure (SMILES) | number of time points (YES1) | number of time points (ZAK) | number of time points (ZAP70) | number of time points (CDK4) | number of time points (CDK7) | number of time points (CDK9)
1 | Cn1c(=O)n(-c2ccc(C(C)(C)C#N)cc2)c2c3cc(-c4cnc5ccccc5c4)ccc3ncc21 [Dactolisib (Tosylate)] (10 µM) | 1 | 0 | 0 | 0 | 3 | 0
2 | COc1cc2ncnc(Nc3cccc(O)c3)c2cc1OC (10 µM) | 1 | 1 | 0 | 0 | 1 | 1
3 | C[C@H](NC(=O)/C(C#N)=C/c1cccc(Br)n1)c1ccccc1 (2.5 µM) | 0 | 0 | 0 | 0 | 0 | 0
4 | Nc1ncnc2c1c(-c1ccc(Oc3ccccc3)cc1)cn2C1CCCC1 (2.5 µM) | 0 | 0 | 0 | 0 | 0 | 0
5 | CC(C)Oc1cc(Nc2nc(N[C@@H](C)c3ccc(F)cn3)ncc2Cl)n[nH]1 (10 µM) | 0 | 0 | 0 | 0 | 0 | 0
6 | COc1cc2nc(C)nc(N[C@H](C)c3cc(N)cc(C(F)(F)F)c3)c2cc1O[C@H]1CCOC1 (10 µM) | 0 | 0 | 0 | 0 | 0 | 0
7 | Cc1cc(C(=O)Nc2cccc(C(=O)Nc3cccc(C(F)(F)F)c3)c2)on1 (10 µM) | 0 | 0 | 0 | 0 | 0 | 0
8 | CCOc1ccn(-c2ccc(F)cc2)c(=O)c1C(=O)Nc1ccc(Oc2ccnc(N)c2Cl)c(F)c1 (10 µM) | 1 | 1 | 0 | 0 | 4 | 2
9 | C=CC(=O)N[C@H]1COC[C@H]1Nc1ncc2cc(-c3c(Cl)c(OC)cc(OC)c3Cl)c(=O)n(C)c2n1 (10 µM) | 0 | 0 | 0 | 0 | 0 | 0
10 | Cc1cc(CS(=O)(=O)c2ccccc2)cc(OCc2ccc(CN3CCC[C@@H]3CO)cc2)c1 [PF-543 (Citrate)] (10 µM) | 0 | 0 | 0 | 0 | 0 | 0
11 | COc1ccc2c(NC(=O)Nc3cccc(C(F)(F)F)n3)ccnc2c1 (10 µM) | 0 | – | 0 | 0 | 0 | 0
12 | O=C1NC(=NCc2cccs2)S/C1=C\c1ccc2ncccc2c1 (10 µM) | 0 | 0 | 0 | 0 | 0 | 0
13 | COc1cc(Nc2ncc3c(n2)-c2ccc(Cl)cc2C(c2c(F)cccc2OC)=NC3)ccc1C(=O)O [Alisertib] (2.5 µM) | 0 | – | 0 | 0 | 0 | 0
14 | COc1ccc(C=C(C#N)c2cccnc2)cc1OC (10 µM) | 0 | 0 | 0 | 0 | 0 | 0
15 | Oc1cc(O)cc(/C=C/c2ccc(O)c(O)c2)c1 [Piceatannol] (10 µM) | 2 | 3 | 2 | 0 | 3 | 0
16 | COc1cc2c(Nc3ccc(NC(=O)c4ccccc4)cc3)ncnc2cc1OCCCN1CCOCC1 (10 µM) | 0 | 0 | 0 | 0 | 1 | 0
17 | CN(C)Cc1ccc(-c2cnn3c(-c4cccc(NC(=O)c5cccc(C(F)(F)F)c5)c4)ccnc23)cc1 (2.5 µM) | 0 | 0 | 0 | 0 | 0 | 0
18 | CCCCC[C@H](O)CC(=O)CCc1ccc(O)c(OC)c1 [[6]-Gingerol] (10 µM) | 0 | 0 | 0 | 0 | 0 | 0
19 | Cc1c(Cn2c(C)nc3c(C(=O)O)cc(N4CCOCC4)cc32)cccc1C(F)(F)F (10 µM) | 0 | – | – | 0 | 0 | 0
20 | CCN(CCCOc1ccc2c(Nc3cc(CC(=O)Nc4cccc(F)c4)[nH]n3)ncnc2c1)CCOP(=O)(O)O [Barasertib] (10 µM) | 0 | 0 | 0 | 0 | 1 | 0

An excerpt from above with just number of time points (CDK4) and number of time points (ZAK):

| Row | Structure (SMILES) | number of time points (CDK4) | number of time points (ZAK) |
| --- | --- | --- | --- |
| 10 | Cc1cc(CS(=O)(=O)c2ccccc2)cc(OCc2ccc(CN3CCC[C@@H]3CO)cc2)c1 [PF-543 (Citrate)] (10 µM) | 0 | 0 |
| 11 | COc1ccc2c(NC(=O)Nc3cccc(C(F)(F)F)n3)ccnc2c1 (10 µM) | 0 | – |

Remaining list, next part.

Row | Structure (SMILES) | number of time points (YES1) | number of time points (ZAK) | number of time points (ZAP70) | number of time points (CDK4) | number of time points (CDK7) | number of time points (CDK9)
21 | COc1cc2ncn(-c3cc(OCc4ccccc4C(F)(F)F)c(C(N)=O)s3)c2cc1OC (10 µM) | 0 | 0 | 0 | 0 | 2 | 1
22 | O=S(=O)(NCCNC/C=C/c1ccc(Br)cc1)c1cccc2cnccc12 [H-89 (dihydrochloride)] (10 µM) | 0 | 0 | 0 | 0 | 0 | 0
23 | Cc1nc(N)sc1-c1ccnc(Nc2ccc(N3CCOCC3)cc2)n1 (10 µM) | 0 | – | 0 | 0 | 4 | 0
24 | CC(C)=CC/C=C(\C)[C@H]1CC[C@]2(C)[C@@H]1[C@H](O)C[C@@H]1[C@@]3(C)CC[C@H](O[C@@H]4O[C@H](CO)[C@@H](O)[C@H](O)[C@H]4O[C@@H]4O[C@H](CO)[C@@H](O)[C@H](O)[C@H]4O)C(C)(C)[C@@H]3CC[C@]12C [Ginsenoside Rg5] (10 µM) | 0 | 0 | 0 | 0 | 0 | 0
25 | O=C(c1ccc(-c2ccc(Cl)cc2)o1)N(Cc1ccccn1)c1ccc(N2CCNCC2)cc1 [MK2-IN-1 (hydrochloride)] (10 µM) | – | 0 | 0 | 0 | 1 | 0
26 | CN(C)C[C@@H]1CCn2cc(c3ccccc32)C2=C(C(=O)NC2=O)c2cn(c3ccccc23)CCO1 [Ruboxistaurin (hydrochloride)] (10 µM) | 0 | 0 | 0 | – | 0 | 0
27 | CCn1cc(-c2ccnc3[nH]c(-c4cccc(CN(C)C)c4)cc23)c(-c2ccc(NC(=O)N(C)C)cc2)n1 (2.5 µM) | 0 | 0 | 0 | 0 | 0 | 0
28 | Cc1cccc(Cn2nc(C3CC3)c3c(NC(=O)c4cnc5cc(OCCN6CCN(C)CC6)ccn45)cccc32)n1 (10 µM) | 0 | 0 | 0 | 0 | 0 | 0
29 | CC(C)(C#N)c1ccc(N2C(=O)OCc3cnc4ccc(-c5cnc6ccccc6c5)cc4c32)cc1 (2.5 µM) | 0 | 0 | 0 | 0 | 0 | 0
30 | CC(C)c1ccc2oc3nc(N)c(C(=O)O)cc3c(=O)c2c1 [Amlexanox] (10 µM) | 0 | 0 | 0 | 0 | 0 | 0
31 | CN(c1ncccc1CNc1nc(Nc2ccc3c(c2)CC(=O)N3)ncc1C(F)(F)F)S(C)(=O)=O (2.5 µM) | 0 | – | 0 | 0 | 0 | 0
32 | Nc1nc(OCC2CCCCC2)c2[nH]cnc2n1 (10 µM) | 0 | 0 | 0 | 0 | 0 | 0
33 | O=C(Nc1cc(C(F)(F)F)ccc1N1CCN(Cc2ccccn2)CC1)c1ccc(-c2ccncc2)o1 (10 µM) | 0 | 0 | 0 | 0 | 0 | 1
34 | CNC(=O)c1cc(Oc2ccc(NC(=O)Nc3cc(C(C)(C)C)nn3-c3ccc4ncccc4c3)c(F)c2)ccn1 [Rebastinib] (2.5 µM) | 3 | 2 | 0 | 0 | 4 | 4
35 | Cc1c[nH]c2nccc(Oc3c(F)cc(Nc4cc(Cl)nc(N)n4)cc3F)c12 (10 µM) | 2 | – | 0 | 0 | 1 | 0
36 | COc1ccc(COc2ccc(Cc3cnc(N)nc3N)cc2OC)cc1 (10 µM) | 0 | 0 | 0 | 0 | 0 | 0
37 | CNC(=O)c1ccccc1Nc1nc(Nc2ccc(N3CCOCC3)cc2OC)ncc1Cl (2.5 µM) | 0 | 0 | 0 | 0 | 0 | 0
38 | CCOc1cc2ncc(C#N)c(Nc3ccc(OCc4ccccn4)c(Cl)c3)c2cc1NC(=O)/C=C/CN(C)C [Neratinib] (10 µM) | 0 | 0 | 0 | 0 | 0 | 0
39 | O=C1Nc2ccccc2/C1=C/c1ccc(F)cc1 (10 µM) | 0 | 0 | 0 | 0 | 0 | 0
